Results as given in article PMC9681887.
These are yes or no findings as the source states them, for the method shown. Binding seen in cells or lysates may run through a third protein. Some binding calls cover weakened binding; strength is not graded here.

Amino acid sequences for entries named in this document (tags omitted).
UniProt O88907: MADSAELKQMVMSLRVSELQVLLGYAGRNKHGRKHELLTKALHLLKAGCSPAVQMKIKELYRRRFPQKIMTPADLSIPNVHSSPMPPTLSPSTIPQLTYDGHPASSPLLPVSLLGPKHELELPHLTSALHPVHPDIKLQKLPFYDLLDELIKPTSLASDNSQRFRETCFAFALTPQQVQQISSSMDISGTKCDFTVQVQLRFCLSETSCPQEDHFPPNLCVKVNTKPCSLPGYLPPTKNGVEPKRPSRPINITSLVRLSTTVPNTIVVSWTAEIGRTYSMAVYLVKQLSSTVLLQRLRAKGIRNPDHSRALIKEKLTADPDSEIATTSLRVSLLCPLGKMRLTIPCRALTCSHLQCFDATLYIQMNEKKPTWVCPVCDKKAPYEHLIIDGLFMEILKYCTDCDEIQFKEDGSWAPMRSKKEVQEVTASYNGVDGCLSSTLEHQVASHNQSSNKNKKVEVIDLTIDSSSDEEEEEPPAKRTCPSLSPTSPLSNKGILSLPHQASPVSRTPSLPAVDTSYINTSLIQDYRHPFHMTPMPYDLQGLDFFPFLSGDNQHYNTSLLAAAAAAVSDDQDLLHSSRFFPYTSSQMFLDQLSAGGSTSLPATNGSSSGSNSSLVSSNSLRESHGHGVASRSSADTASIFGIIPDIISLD

Molecular target: T1, RIPK1 (ectopically expressed) (mouse) (UniProt Q60855)
T1 sequence: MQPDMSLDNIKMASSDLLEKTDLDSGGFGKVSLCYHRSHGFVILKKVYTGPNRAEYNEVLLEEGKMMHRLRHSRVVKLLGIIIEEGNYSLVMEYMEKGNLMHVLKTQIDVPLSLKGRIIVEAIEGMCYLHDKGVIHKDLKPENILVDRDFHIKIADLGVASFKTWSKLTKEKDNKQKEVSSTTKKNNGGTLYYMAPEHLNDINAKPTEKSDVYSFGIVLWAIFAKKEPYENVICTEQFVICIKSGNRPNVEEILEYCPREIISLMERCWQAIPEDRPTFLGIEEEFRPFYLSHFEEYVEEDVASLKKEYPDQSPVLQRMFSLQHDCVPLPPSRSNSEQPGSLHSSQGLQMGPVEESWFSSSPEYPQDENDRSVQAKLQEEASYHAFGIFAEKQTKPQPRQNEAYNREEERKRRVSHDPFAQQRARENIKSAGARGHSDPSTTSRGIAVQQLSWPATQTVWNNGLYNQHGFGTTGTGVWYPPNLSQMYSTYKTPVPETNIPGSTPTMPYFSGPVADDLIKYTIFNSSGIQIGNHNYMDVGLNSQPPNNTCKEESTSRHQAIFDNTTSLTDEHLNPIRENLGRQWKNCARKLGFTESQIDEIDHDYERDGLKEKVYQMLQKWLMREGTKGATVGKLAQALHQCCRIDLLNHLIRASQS
Experiment: co-IP; ectopically expressed proteins (HEK293T where stated); lysate in 50 mM Tris-HCl pH 7.5, 150 mM NaCl, 1% NP40, 5% glycerol; antibody overnight at 4 °C, protein A/G agarose; immunoblot

binding: binds
Substance: PIAS1 (expressed in HEK293T cells) (from UniProt O88907 1-651) (enzyme)
